## Library compounds against nucleic acid targets

Calls as published in the ROBIN set (doi:10.1002/anie.202211358).

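Compounds were printed on reactive glass slides in duplicate spots, a dye-labelled oligonucleotide was laid over them, and the fluorescence left after washing was read. For the PreQ1, TPP and SAM-II riboswitches the laboratory earlier reported (doi:10.1038/s41467-019-09493-3) 1 µM RNA, 2 h, and a rule that included a mean Z-score above 3 (spot signal-to-noise against the whole library), a score well above that on a control array, and duplicate spots agreeing (coefficient of variation under 100). The data file gives only the calls; its cut-offs may differ, and compounds hitting several targets are kept. A missing hit is not proof of no binding, and a hit is not a measured affinity.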
Key: active = hit, inactive = tested without a hit.
Compounds were drawn at random from those tested, without regard to their results.
A dash means that no call is listed here.

Targets, with sequences 5′ to 3′:
PreQ1: PreQ1 riboswitch RNA pseudoknot, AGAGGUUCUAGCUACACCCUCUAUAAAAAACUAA. From B. subtilis. Hit rate about 0.7% of about 24,000 compounds.
TPP: TPP riboswitch RNA three-way junction, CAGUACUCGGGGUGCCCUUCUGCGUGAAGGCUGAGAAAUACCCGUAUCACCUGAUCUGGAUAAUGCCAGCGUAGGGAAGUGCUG. Hit rate about 0.7% of about 24,000 compounds.
SAM-II: SAM-II riboswitch RNA pseudoknot, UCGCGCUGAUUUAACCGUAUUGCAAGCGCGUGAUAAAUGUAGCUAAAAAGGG. Hit rate about 1% of about 21,000 compounds.

| # | SMILES | PreQ1 | TPP | SAM-II |
|---|---|---|---|---|
| 1 | `CCOC(=O)c1ccc2ncc(C(=O)OCC)c(Nc3ccc(CC)cc3)c2c1` | inactive | inactive | inactive |
| 2 | `CCn1c(C)[n+](CC(O)CS(=O)(=O)[O-])c2cc(Cl)c(Cl)cc21` (centres undefined) | inactive | inactive | inactive |
| 3 | `O=C(Cn1cc(Cl)cn1)N[C@H]1CC[C@H]1NC1CCCCCC1` | inactive | inactive | inactive |
| 4 | `CC1(C)CC(=O)C2=C(C1)OC(N)=C(C(=O)OC(C)(C)C)C21C(=O)Nc2ccc(Br)cc21` (centres undefined) | inactive | inactive | inactive |
| 5 | `CCOc1ccc(CCCC(=O)N(CCO)Cc2cnn(C)c2)cc1C` | inactive | inactive | inactive |
| 6 | `Cc1cccc(CN2CCN(C(c3ccccc3)c3ccc(Cl)cc3)CC2)c1` (centres undefined) | inactive | inactive | inactive |
| 7 | `OC(c1cccs1)C1CCN(c2ncccn2)CC1` (centres undefined) | inactive | inactive | inactive |
| 8 | `CCc1c(C)nc2nc(C)nn2c1Nc1cccc(OC)c1` | inactive | inactive | inactive |
| 9 | `c1ccc(-c2ncn(CC3CNCCO3)c2-c2cccn2-c2cccnc2)cc1` (centres undefined) | inactive | inactive | inactive |
| 10 | `CC(=O)c1ccc(Nc2nc(-c3ccccn3)cs2)cc1` | inactive | inactive | inactive |
| 11 | `CO[C@H]1C[C@@H](O)C12CCN(C(=O)c1ccc3ncccc3c1)CC2` | inactive | inactive | inactive |
| 12 | `CN(C)c1ccc2c(c1)OC(N)=C(C#N)C2c1cccc(Cl)c1` (centres undefined) | inactive | inactive | inactive |
| 13 | `Cc1nc(N2CCOCC2)nc(Nc2ccc(F)cc2F)c1[N+](=O)[O-]` | inactive | inactive | inactive |
| 14 | `N#Cc1cnn2c(NC3CCCCC3)c(-c3ccccc3F)[nH]c12` | inactive | inactive | - |
| 15 | `COc1ccc(N2CCN(CC(O)c3ccc4c(c3)CCN4)CC2)cc1` (centres undefined) | inactive | inactive | inactive |
| 16 | `Nc1nc(Cl)cc(N2CCN(C(=O)c3ccco3)CC2)n1` | inactive | inactive | inactive |
| 17 | `Cn1nc(N)c2ncc(C(Cl)(Cl)Cl)nc21` | inactive | inactive | inactive |
| 18 | `N#Cc1c(N)nc(SCc2ccccc2)c(C#N)c1-c1cccs1` | inactive | inactive | inactive |
| 19 | `Cc1ccc2nc(N3CCCC(O)C3)c(CN(C)Cc3nnc(C)o3)cc2c1` (centres undefined) | inactive | inactive | inactive |
| 20 | `Nc1ncnc2c1nc(Cl)n2[C@@H]1O[C@H](CO)[C@@H](O)[C@@H]1O` | inactive | inactive | inactive |
| 21 | `Cc1ccc(C)c2c(O)cc(CNCc3nccs3)nc12` | inactive | inactive | inactive |
| 22 | `N#CC1=C(N)N(c2ccccc2)C2=C(C(=O)OC2)C12C(=O)N(Cc1cccc(F)c1)c1ccccc12` (centres undefined) | inactive | inactive | inactive |
| 23 | `CC(C)c1ccc(CNc2ncc(Br)cn2)cc1` | inactive | inactive | - |
| 24 | `Cn1nc(-c2cc(N)nc3[nH]ccc23)nc1N1CCCCC1` | inactive | inactive | inactive |
| 25 | `Cc1ccc(O)c(C(CCN(C(C)C)C(C)C)c2ccccc2)c1.Cl` (centres undefined) | inactive | inactive | inactive |
| 26 | `C=C(C)COc1ccc(C(=O)N2CC[C@H](O)C[C@@H]2C(=O)O)cc1` | inactive | inactive | inactive |
| 27 | `Cc1nc2nc(NCc3ccc(C(C)C)cc3)nn2c(C)c1Cl` | inactive | active | - |
| 28 | `CCOC(=O)[C@]12CCCN[C@@H]1CCN(C(=O)c1ccc3c(c1)CCO3)C2` | inactive | inactive | inactive |
| 29 | `O=C(C1CC2(CCNCC2)CN1)N1CCN(c2cccc(Cl)c2Cl)CC1` (centres undefined) | inactive | inactive | inactive |
| 30 | `COC(=O)c1cc(OCC2CCC2)cc(C(=O)N2CC=CC2CO)c1` (centres undefined) | inactive | inactive | inactive |
| 31 | `C=C(C)CC(NCc1ccco1)c1ccc(OC)cc1` (centres undefined) | inactive | inactive | inactive |
| 32 | `O=C(N[C@H]1CC[C@H](O)CC1)C(Cc1ccc(O)cc1)c1ccccc1` (some centres undefined) | inactive | inactive | inactive |
| 33 | `Cc1nn2cc(-c3ccc(N)cc3)nc2s1` | inactive | inactive | inactive |
| 34 | `CCNc1nc(Oc2ccc(=O)n(-c3ccccc3)n2)nc(N(C)C)n1` | inactive | inactive | inactive |
| 35 | `O=C(NCC(c1ccccc1)c1ccccc1)c1nn(-c2ccccc2F)nc1CO` | inactive | inactive | - |
| 36 | `O=C(NCCO)C(=Cc1ccco1)NC(=O)c1cccs1` | inactive | inactive | inactive |
| 37 | `COc1ccc(-c2noc(-c3nnn(-c4ccccc4C)c3N)n2)cc1` | inactive | inactive | - |
| 38 | `COc1ccc(OC)c(N2CC(=O)C(c3nc4ccccc4s3)=C2N)c1` | inactive | inactive | inactive |
| 39 | `NC1=C(c2nc3ccccc3s2)C(=O)CN1c1ccc(F)cc1` | inactive | inactive | inactive |
| 40 | `CC(=O)c1ccc(Nc2nc3ccccc3nc2-n2nc(C)cc2C)cc1` | inactive | inactive | inactive |
| 41 | `CC1C(=O)OC2C(O)C34C5CC(C(C)(C)C)C36C(OC(=O)C6O)OC4(C(=O)O5)C12O` (centres undefined) | inactive | inactive | inactive |
| 42 | `Cc1ccn2cc(CNc3cccc(C(F)(F)F)c3)nc2c1` | inactive | inactive | inactive |
| 43 | `Nc1nc2n(n1)[C@@H](c1ccc(OCc3ccccc3)cc1)C[C@@H](c1ccc(Cl)cc1)N2` | inactive | inactive | inactive |
| 44 | `O=C(NCCCSCc1ccco1)C1CNCCO1` (centres undefined) | inactive | inactive | inactive |
| 45 | `OC(CNc1nccc(-c2cccnc2)n1)COc1ccc(Cl)cc1` (centres undefined) | inactive | inactive | inactive |
| 46 | `Cc1ccccc1CN[C@H]1CS(=O)(=O)C[C@@H]1S(=O)(=O)c1ccccc1` | inactive | inactive | - |
| 47 | `CCN(CCOc1ccc(Cl)cc1)C(=O)c1ccc2c(c1)ncn2CCO` | inactive | inactive | inactive |
| 48 | `Cc1ccc2nc(CNCc3csc(-c4ncccn4)n3)cc(O)c2c1` | inactive | inactive | inactive |
| 49 | `CCn1c(=O)n(CC)c2cc(NC3=NS(=O)(=O)c4ccccc43)ccc21` | inactive | inactive | - |
| 50 | `Nc1ccc(C(=O)C(=O)c2ccc(N)cc2)cc1` | inactive | inactive | inactive |
| 51 | `O=C(CCc1cc2n(n1)CCCNC2)N1CCN[C@H]2CS(=O)(=O)C[C@H]21` | inactive | inactive | inactive |
| 52 | `CCCCNc1ccc(C(=O)O)cc1` | inactive | inactive | inactive |
| 53 | `CCOc1cc(CNc2cccc3nc(C(F)(F)F)[nH]c23)ccc1OC` | inactive | inactive | inactive |
| 54 | `CCCCNc1oc(-c2ccc(S(=O)(=O)N3CCOCC3)cc2)nc1C#N` | inactive | inactive | - |
| 55 | `COc1ccc(-c2nc(N)c3c4c(sc3n2)CCCC4)cc1` | inactive | inactive | - |
| 56 | `Cc1[nH]c2c(F)cccc2c1CC(=O)NCCN1CCCCC1CO` (centres undefined) | inactive | inactive | inactive |
| 57 | `Cc1cc(CNc2nccc(N3CCC(O)CC3)n2)c2[nH]c(C)c(C)c2c1` | inactive | inactive | inactive |
| 58 | `N#CC1=C(N)OC2=C(CCC2=Cc2ccccc2)C1c1ccccc1` (centres undefined) | inactive | inactive | inactive |
| 59 | `Cc1cccc(N2CCN(CC(O)COc3ccccc3Cl)CC2)c1` (centres undefined) | inactive | inactive | inactive |

The first 6 entries again:

SMILES,PreQ1,TPP,SAM-II
CCOC(=O)c1ccc2ncc(C(=O)OCC)c(Nc3ccc(CC)cc3)c2c1,inactive,inactive,inactive
CCn1c(C)[n+](CC(O)CS(=O)(=O)[O-])c2cc(Cl)c(Cl)cc21 (centres undefined),inactive,inactive,inactive
O=C(Cn1cc(Cl)cn1)N[C@H]1CC[C@H]1NC1CCCCCC1,inactive,inactive,inactive
CC1(C)CC(=O)C2=C(C1)OC(N)=C(C(=O)OC(C)(C)C)C21C(=O)Nc2ccc(Br)cc21 (centres undefined),inactive,inactive,inactive
CCOc1ccc(CCCC(=O)N(CCO)Cc2cnn(C)c2)cc1C,inactive,inactive,inactive
Cc1cccc(CN2CCN(C(c3ccccc3)c3ccc(Cl)cc3)CC2)c1 (centres undefined),inactive,inactive,inactive